Record: PubChem BioAssay AID686943 (Drosophila RNAi Screening Center, 2013)
Aim: 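Search across the genome for regulators of signalling from receptor tyrosine kinase to ERK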 (primary screen). System: Drosophila S2R+ haemocyte-like cells expressing YFP-tagged ERK (Rolled). Reagent: long dsRNA against Drosophila genes. Challenge: insulin stimulation versus unstimulated cells; dose and duration not given. Measurement: 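Antibody staining for doubly phosphorylated ERK divided by ERK-YFP signal, as plate z-scores, in insulin-treated and untreated cells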. Scale: replicate 1, z-score of dpERK with insulin: higher = more active ERK per ERK-YFP after insulin.
The screen tested about 23,000 reagents; shown is a random part of those with a known target gene and a result. 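Extra replicates exist only for a retested subset of genes; insulin dose and duration not given; both raised and lowered dpERK matter.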 The numbers tell different reagents against one gene apart. A plus sign joins genes that one reagent is predicted to hit. Further read-outs or replicates are left out here. No sequences are given here. Not given: the amount of reagent, the time to read-out.

For pcx (pecanex) #1, what does the deposit list?
replicate 1, z-score of dpERK with insulin: 0.05

What did the screen give for pcx (pecanex) #2?
replicate 1, z-score of dpERK with insulin: 0.25

Which result is listed for pcx (pecanex) #3?
replicate 1, z-score of dpERK with insulin: -0.42

Which result is listed for pcx (pecanex) #4?
replicate 1, z-score of dpERK with insulin: -1.67

What is on record for pcx (pecanex) #5?
replicate 1, z-score of dpERK with insulin: -0.62

How did the screen score pcx (pecanex) #6?
replicate 1, z-score of dpERK with insulin: 0.23

With Idgf6 (Imaginal disc growth factor 6), what does the deposit list?
replicate 1, z-score of dpERK with insulin: 1.08

For Alp2 (Alkaline phosphatase 2), what was measured?
replicate 1, z-score of dpERK with insulin: -2.72

Which result is listed for Prp16 (pre-mRNA processing factor 16) #1?
replicate 1, z-score of dpERK with insulin: 0.29

What is on record for Prp16 (pre-mRNA processing factor 16) #2?
replicate 1, z-score of dpERK with insulin: 0.46

With CG10474, what was measured?
replicate 1, z-score of dpERK with insulin: 1.49

Which result is listed for Cp7Fc (Chorion protein c at 7F)?
replicate 1, z-score of dpERK with insulin: -0.27

How did the screen score CG5966?
replicate 1, z-score of dpERK with insulin: 0.72

For Rai1 (Rat1 Interacting Protein 1), what was measured?
replicate 1, z-score of dpERK with insulin: 0.64

What is on record for CG10993?
replicate 1, z-score of dpERK with insulin: 0.44

With qkr58E-1 (quaking related 58E-1), what was measured?
replicate 1, z-score of dpERK with insulin: 2

With Pkc53E (Protein C kinase 53E) #1, what was measured?
replicate 1, z-score of dpERK with insulin: -0.09

With Pkc53E (Protein C kinase 53E) #2, how do the results read?
replicate 1, z-score of dpERK with insulin: -0.03

With CG31704, how do the results read?
replicate 1, z-score of dpERK with insulin: -1.74

For CG14995, what was measured?
replicate 1, z-score of dpERK with insulin: -0.84

For MFS12 (Major Facilitator Superfamily Transporter 12), how do the results read?
replicate 1, z-score of dpERK with insulin: 0.12

What did the screen give for CG33679?
replicate 1, z-score of dpERK with insulin: -0.4

For OtopLc (Otopetrin-like c) #1, what does the deposit list?
replicate 1, z-score of dpERK with insulin: -0.21

What is on record for OtopLc (Otopetrin-like c) #2?
replicate 1, z-score of dpERK with insulin: 0.59

What did the screen give for OtopLc (Otopetrin-like c) #3?
replicate 1, z-score of dpERK with insulin: -0.78

How did the screen score CG3704 #1?
replicate 1, z-score of dpERK with insulin: 0.46

With CG3704 #2, what was measured?
replicate 1, z-score of dpERK with insulin: 1.1

What did the screen give for GstD9 (Glutathione S transferase D9)?
replicate 1, z-score of dpERK with insulin: -0.04

For Tsp33B (Tetraspanin 33B), what was measured?
replicate 1, z-score of dpERK with insulin: -0.19

How did the screen score wuho?
replicate 1, z-score of dpERK with insulin: 0.48

With Unc-115b + p24-2, what was measured?
replicate 1, z-score of dpERK with insulin: 0.05

4 of these entries, set out differently:
predicted target,dsRNA no.,"replicate 1, z-score of dpERK with insulin"
CG10474,1,1.49
Cp7Fc (Chorion protein c at 7F),1,-0.27
CG5966,1,0.72
Rai1 (Rat1 Interacting Protein 1),1,0.64
